PubChem BioAssay AID652243, Drosophila RNAi Screening Center, 2013

- Aim: 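Fly genes required for human androgen receptor driven transcription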 (primary screen)
- Cells: Drosophila S2R+ cells
- Reagent: long dsRNA against Drosophila genes
- Duration: 72 h (48 h, then 24 h hormone)
- Conditions: synthetic androgen R1881 at 10 nM for 24 h
- Measured: 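Firefly light from an androgen-responsive reporter and Renilla control light per well, raw and unnormalised, for each of two replicates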
- Scale: firefly reporter light: higher = more light from androgen-responsive reporter; Renilla control light: higher = more constitutive control signal (cell number, transfection)
- Hit rule: 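Across duplicate plates, a knock-down whose log firefly/Renilla ratio shifted a set fold down or up from the GFP/LacZ control mean was a hit; the downward cut appears as both 1.5 and 3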
- Calls: active = hit: reporter lowered or raised; inactive = no hit
The deposit covers about 24,000 reagents; shown is an unselected part of those with a known target gene and a result. In the full data, 246 (1%) got an active call. 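Plates not normalised; calls are printed but the firefly/Renilla ratio behind them is not deposited; fold cut for lowering reported inconsistently.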 The raw values are shown without normalisation. A plus sign joins genes that one reagent is predicted to hit. Not stated in the record: the amount of reagent.

Nmda1 [DRSC07479]: firefly reporter light, replicate 1 = 1.28e6; firefly reporter light, replicate 2 = 1.08e6; Renilla control light, replicate 1 = 1.77e6; Renilla control light, replicate 2 = 1.58e6; Outcome = inactive
Nmda1 [DRSC26357]: firefly reporter light, replicate 1 = 2.78e5; firefly reporter light, replicate 2 = 2.96e5; Renilla control light, replicate 1 = 4.64e5; Renilla control light, replicate 2 = 4.53e5; Outcome = inactive
Tsen34 + Trl [DRSC10014]: firefly reporter light, replicate 1 = 2.44e5; firefly reporter light, replicate 2 = 2.60e5; Renilla control light, replicate 1 = 2.45e6; Renilla control light, replicate 2 = 1.85e6; Outcome = inactive
CG7992 [DRSC20070]: firefly reporter light, replicate 1 = 1.71e5; firefly reporter light, replicate 2 = 1.39e5; Renilla control light, replicate 1 = 5.40e5; Renilla control light, replicate 2 = 3.54e5; Outcome = inactive
CG14416 [DRSC18639]: firefly reporter light, replicate 1 = 4.31e5; firefly reporter light, replicate 2 = 5.96e5; Renilla control light, replicate 1 = 2.86e6; Renilla control light, replicate 2 = 3.40e6; Outcome = inactive
CG14416 [DRSC29804]: firefly reporter light, replicate 1 = 7.49e5; firefly reporter light, replicate 2 = 5.15e5; Renilla control light, replicate 1 = 1.40e6; Renilla control light, replicate 2 = 1.28e6; Outcome = inactive
CG4520 [DRSC15590]: firefly reporter light, replicate 1 = 1.65e5; firefly reporter light, replicate 2 = 2.24e5; Renilla control light, replicate 1 = 2.20e6; Renilla control light, replicate 2 = 2.39e6; Outcome = inactive
CG4520 [DRSC26216]: firefly reporter light, replicate 1 = 3.52e5; firefly reporter light, replicate 2 = 3.65e5; Renilla control light, replicate 1 = 8.94e5; Renilla control light, replicate 2 = 7.77e5; Outcome = inactive
Nf-YC [DRSC23106]: firefly reporter light, replicate 1 = 6.24e5; firefly reporter light, replicate 2 = 7.92e5; Renilla control light, replicate 1 = 1.24e6; Renilla control light, replicate 2 = 1.32e6; Outcome = inactive
CG17048 [DRSC06649]: firefly reporter light, replicate 1 = 3.13e5; firefly reporter light, replicate 2 = 2.54e5; Renilla control light, replicate 1 = 2.19e6; Renilla control light, replicate 2 = 1.80e6; Outcome = inactive
fln [DRSC11346]: firefly reporter light, replicate 1 = 63794; firefly reporter light, replicate 2 = 48768; Renilla control light, replicate 1 = 6.98e5; Renilla control light, replicate 2 = 5.06e5; Outcome = inactive
fln [DRSC28670]: firefly reporter light, replicate 1 = 5.37e5; firefly reporter light, replicate 2 = 3.68e5; Renilla control light, replicate 1 = 1.42e6; Renilla control light, replicate 2 = 1.20e6; Outcome = inactive

Copied from the list.
CG4520 [DRSC26216], firefly reporter light, replicate 2 = 3.65e5
Nmda1 [DRSC26357], Renilla control light, replicate 2: 4.53e5
